For expression read-outs the peptide stands for its source gene, whose mRNA was measured; the gene is not named for every peptide.
Test system: source genes of the peptides
Experiment: Target coverage of source genes based on TCGA Research Network expression data
Parameters: species or system human
Conditions: for Target coverage, over-expression category of source gene, SARC: Sarcoma (N = 263); for Target coverage, over-expression category of source gene, SKCM: Skin cutaneous melanoma (N = 473); for Target coverage, over-expression category of source gene, STAD: Stomach adenocarcinoma (N = 415); for Target coverage, over-expression category of source gene, TGCT: Testicular germ cell tumors (N = 156); for Target coverage, over-expression category of source gene, STAD (N = 415): Stomach adenocarcinoma; for Target coverage, over-expression category of source gene, TGCT (N = 156): Testicular germ cell tumors; for Target coverage, over-expression category of source gene, UCS: Uterine carcinosarcoma (N = 57); for Target coverage, over-expression category of source gene, UCEC: Uterine corpus endometrial carcinoma (N = 546); for Target coverage, over-expression category of source gene, SARC (N = 263): Sarcoma; for Target coverage, over-expression category of source gene, SKCM (N = 473): Skin cutaneous melanoma; for Target coverage, over-expression category of source gene, UCEC (N = 546): Uterine corpus endometrial carcinoma; for Target coverage, over-expression category of source gene, THYM (N = 120): Thymoma; for Target coverage, over-expression category of source gene, UCS (N = 57): Uterine carcinosarcoma; for Target coverage, over-expression category of source gene, THCA (N = 513): Thyroid carcinoma; for Target coverage, over-expression category of source gene, UVM: Uveal melanoma (N = 80); for Target coverage, over-expression category of source gene, UVM (N = 80): Uveal melanoma
[1] = cutoff more than 2-fold above highest 75% percentile of normal organs

Substance: 376: peptide found in RAD18 (gene looked up) (VYTPVASRQSL; listed as Homo sapiens) [compound 376]
- Target coverage, over-expression category of source gene, SARC: C (>=5% of tumors above the cutoff, but <20%)
- Target coverage, over-expression category of source gene, SKCM: B (>=20% of tumors above the cutoff, but <50%)
- Target coverage, over-expression category of source gene, STAD: C (>=5% of tumors above the cutoff, but <20%)
- Target coverage, over-expression category of source gene, TGCT: B (>=20% of tumors above the cutoff, but <50%)

Substance: 145: peptide found in CCR8 (gene looked up) (VYALKVRTI; listed as Homo sapiens) [compound 145]
- Target coverage, over-expression category of source gene, STAD (N = 415) [1]: C (>=5% of tumors above the cutoff, but <20%)
- Target coverage, over-expression category of source gene, TGCT (N = 156) [1]: C (>=5% of tumors above the cutoff, but <20%)

Substance: 401: peptide found in MMP1 (gene looked up) (VFMKDGFFYF; listed as Homo sapiens) [compound 401]
- Target coverage, over-expression category of source gene, SARC: C (>=5% of tumors above the cutoff, but <20%)
- Target coverage, over-expression category of source gene, SKCM: C (>=5% of tumors above the cutoff, but <20%)
- Target coverage, over-expression category of source gene, STAD: A (>=50% of tumors above the cutoff)
- Target coverage, over-expression category of source gene, UCS: C (>=5% of tumors above the cutoff, but <20%)
- Target coverage, over-expression category of source gene, UCEC: C (>=5% of tumors above the cutoff, but <20%)

Substance: 350: peptide found in GTPBP10 (gene looked up) (KYGNFIDKL; listed as Homo sapiens) [compound 350]
- Target coverage, over-expression category of source gene, STAD (N = 415) [1]: C (>=5% of tumors above the cutoff, but <20%)
- Target coverage, over-expression category of source gene, TGCT (N = 156) [1]: C (>=5% of tumors above the cutoff, but <20%)

Substance: 348: peptide found in FANCD2 (gene looked up) (IYLEHTESI; listed as Homo sapiens) [compound 348]
- Target coverage, over-expression category of source gene, SARC (N = 263) [1]: C (>=5% of tumors above the cutoff, but <20%)
- Target coverage, over-expression category of source gene, STAD (N = 415) [1]: C (>=5% of tumors above the cutoff, but <20%)
- Target coverage, over-expression category of source gene, TGCT (N = 156) [1]: A (>=50% of tumors above the cutoff)

Substance: 92: peptide found in IGFBP3 (gene looked up) (LLRGPPVARA; listed as Homo sapiens) [compound 92]
- Target coverage, over-expression category of source gene, SARC (N = 263) [1]: C (>=5% of tumors above the cutoff, but <20%)
- Target coverage, over-expression category of source gene, SKCM (N = 473) [1]: C (>=5% of tumors above the cutoff, but <20%)
- Target coverage, over-expression category of source gene, UCEC (N = 546) [1]: C (>=5% of tumors above the cutoff, but <20%)

Substance: 237: peptide found in KIF14 (gene looked up) (KYVGQLAVL; listed as Homo sapiens) [compound 237]
- Target coverage, over-expression category of source gene, SKCM (N = 473) [1]: A (>=50% of tumors above the cutoff)
- Target coverage, over-expression category of source gene, STAD (N = 415) [1]: A (>=50% of tumors above the cutoff)
- Target coverage, over-expression category of source gene, TGCT (N = 156) [1]: A (>=50% of tumors above the cutoff)
- Target coverage, over-expression category of source gene, THYM (N = 120) [1]: A (>=50% of tumors above the cutoff)
- Target coverage, over-expression category of source gene, UCS (N = 57) [1]: A (>=50% of tumors above the cutoff)

Substance: 220: peptide found in DCLRE1C (gene looked up) (SYSEIKDFL; listed as Homo sapiens) [compound 220]
- Target coverage, over-expression category of source gene, STAD (N = 415) [1]: C (>=5% of tumors above the cutoff, but <20%)

Substance: 213: peptide found in SGK3 (gene looked up) (SYAPPSEDLFL; listed as Homo sapiens) [compound 213]
- Target coverage, over-expression category of source gene, SKCM (N = 473) [1]: C (>=5% of tumors above the cutoff, but <20%)
- Target coverage, over-expression category of source gene, THCA (N = 513) [1]: C (>=5% of tumors above the cutoff, but <20%)

Substance: 396: peptide found in GRIK3 (gene looked up) (YYHFIFTTL; listed as Homo sapiens) [compound 396]
- Target coverage, over-expression category of source gene, SARC: C (>=5% of tumors above the cutoff, but <20%)
- Target coverage, over-expression category of source gene, SKCM: C (>=5% of tumors above the cutoff, but <20%)
- Target coverage, over-expression category of source gene, UVM: C (>=5% of tumors above the cutoff, but <20%)

Substance: 400: peptide found in MMP1 (gene looked up) (KYLEKYYNL; listed as Homo sapiens) [compound 400]
- Target coverage, over-expression category of source gene, SARC: C (>=5% of tumors above the cutoff, but <20%)
- Target coverage, over-expression category of source gene, SKCM: C (>=5% of tumors above the cutoff, but <20%)
- Target coverage, over-expression category of source gene, STAD: A (>=50% of tumors above the cutoff)
- Target coverage, over-expression category of source gene, UCS: C (>=5% of tumors above the cutoff, but <20%)
- Target coverage, over-expression category of source gene, UCEC: C (>=5% of tumors above the cutoff, but <20%)

Substance: 210: peptide found in BUB1B (gene looked up) (IYAGVGEFSF; listed as Homo sapiens) [compound 210]
- Target coverage, over-expression category of source gene, TGCT (N = 156) [1]: A (>=50% of tumors above the cutoff)

Substance: 345: peptide found in BUB1 (gene looked up) (EYNSDLHQFF; listed as Homo sapiens) [compound 345]
- Target coverage, over-expression category of source gene, STAD (N = 415) [1]: A (>=50% of tumors above the cutoff)
- Target coverage, over-expression category of source gene, TGCT (N = 156) [1]: A (>=50% of tumors above the cutoff)
- Target coverage, over-expression category of source gene, UCS (N = 57) [1]: A (>=50% of tumors above the cutoff)

Substance: 354: peptide found in KIF18A (gene looked up) (VYNEQIRDLL; listed as Homo sapiens) [compound 354]
- Target coverage, over-expression category of source gene, SARC: B (>=20% of tumors above the cutoff, but <50%)
- Target coverage, over-expression category of source gene, SKCM: B (>=20% of tumors above the cutoff, but <50%)
- Target coverage, over-expression category of source gene, STAD: A (>=50% of tumors above the cutoff)
- Target coverage, over-expression category of source gene, TGCT: A (>=50% of tumors above the cutoff)
- Target coverage, over-expression category of source gene, THYM (Thymoma (N = 120)): B (>=20% of tumors above the cutoff, but <50%)
- Target coverage, over-expression category of source gene, UCS: A (>=50% of tumors above the cutoff)
- Target coverage, over-expression category of source gene, UCEC: B (>=20% of tumors above the cutoff, but <50%)

Substance: 212: peptide found in SGK3 (gene looked up) (SYAPPSEDLF; listed as Homo sapiens) [compound 212]
- Target coverage, over-expression category of source gene, SKCM (N = 473) [1]: C (>=5% of tumors above the cutoff, but <20%)
- Target coverage, over-expression category of source gene, THCA (N = 513) [1]: C (>=5% of tumors above the cutoff, but <20%)

Substance: 130: peptide found in MOB1A (gene looked up) (VYAHIYHQHF; listed as Homo sapiens) [compound 130]
- Target coverage, over-expression category of source gene, STAD (N = 415) [1]: C (>=5% of tumors above the cutoff, but <20%)

Substance: 124: peptide found in PRKDC (gene looked up) (TYKDYVDLF; listed as Homo sapiens) [compound 124]
- Target coverage, over-expression category of source gene, SARC (N = 263) [1]: C (>=5% of tumors above the cutoff, but <20%)
- Target coverage, over-expression category of source gene, SKCM (N = 473) [1]: C (>=5% of tumors above the cutoff, but <20%)
- Target coverage, over-expression category of source gene, UVM (N = 80) [1]: C (>=5% of tumors above the cutoff, but <20%)

Substance: 123: peptide found in PRKDC (gene looked up) (VYTPVLEHL; listed as Homo sapiens) [compound 123]
- Target coverage, over-expression category of source gene, SARC (N = 263) [1]: C (>=5% of tumors above the cutoff, but <20%)
- Target coverage, over-expression category of source gene, SKCM (N = 473) [1]: C (>=5% of tumors above the cutoff, but <20%)
- Target coverage, over-expression category of source gene, UVM (N = 80) [1]: C (>=5% of tumors above the cutoff, but <20%)

Substance: 277: peptide found in TDG (gene looked up) (FYTFPFQQL; listed as Homo sapiens) [compound 277]
- Target coverage, over-expression category of source gene, STAD (N = 415) [1]: C (>=5% of tumors above the cutoff, but <20%)
- Target coverage, over-expression category of source gene, UCEC (N = 546) [1]: C (>=5% of tumors above the cutoff, but <20%)

Substance: 219: peptide found in CYP4Z1 (gene looked up) (SYLKAVFNL; listed as Homo sapiens) [compound 219]
- Target coverage, over-expression category of source gene, UCS (N = 57) [1]: C (>=5% of tumors above the cutoff, but <20%)
- Target coverage, over-expression category of source gene, UCEC (N = 546) [1]: C (>=5% of tumors above the cutoff, but <20%)

Substance: 335: peptide found in NUP210 (gene looked up) (VLLAAGPSAA; listed as Homo sapiens) [compound 335]
- Target coverage, over-expression category of source gene, PRAD (N = 498) (Prostate adenocarcinoma, cutoff more than 2-fold above highest 75% percentile of normal organs): C (>=5% of tumors above the cutoff, but <20%)
- Target coverage, over-expression category of source gene, SARC (N = 263) [1]: C (>=5% of tumors above the cutoff, but <20%)
- Target coverage, over-expression category of source gene, TGCT (N = 156) [1]: C (>=5% of tumors above the cutoff, but <20%)
- Target coverage, over-expression category of source gene, THYM (N = 120) [1]: A (>=50% of tumors above the cutoff)
- Target coverage, over-expression category of source gene, UCS (N = 57) [1]: C (>=5% of tumors above the cutoff, but <20%)

Substance: 360: peptide found in PSMA7 (gene looked up) (VFSPDGHLF; listed as Homo sapiens) [compound 360]
- Target coverage, over-expression category of source gene, SARC: C (>=5% of tumors above the cutoff, but <20%)
- Target coverage, over-expression category of source gene, SKCM: C (>=5% of tumors above the cutoff, but <20%)
- Target coverage, over-expression category of source gene, UCS: B (>=20% of tumors above the cutoff, but <50%)

Substance: 374: peptide found in PRKDC (gene looked up) (VFLPRVTEL; listed as Homo sapiens) [compound 374]
- Target coverage, over-expression category of source gene, SARC: C (>=5% of tumors above the cutoff, but <20%)
- Target coverage, over-expression category of source gene, SKCM: C (>=5% of tumors above the cutoff, but <20%)
- Target coverage, over-expression category of source gene, STAD: B (>=20% of tumors above the cutoff, but <50%)
- Target coverage, over-expression category of source gene, TGCT: B (>=20% of tumors above the cutoff, but <50%)
- Target coverage, over-expression category of source gene, UCS: B (>=20% of tumors above the cutoff, but <50%)
- Target coverage, over-expression category of source gene, UVM: C (>=5% of tumors above the cutoff, but <20%)
